The values below come from paper PMC8555683.

Chains of the proteins cited; added tags and fusions are not shown.
UniProt P35222: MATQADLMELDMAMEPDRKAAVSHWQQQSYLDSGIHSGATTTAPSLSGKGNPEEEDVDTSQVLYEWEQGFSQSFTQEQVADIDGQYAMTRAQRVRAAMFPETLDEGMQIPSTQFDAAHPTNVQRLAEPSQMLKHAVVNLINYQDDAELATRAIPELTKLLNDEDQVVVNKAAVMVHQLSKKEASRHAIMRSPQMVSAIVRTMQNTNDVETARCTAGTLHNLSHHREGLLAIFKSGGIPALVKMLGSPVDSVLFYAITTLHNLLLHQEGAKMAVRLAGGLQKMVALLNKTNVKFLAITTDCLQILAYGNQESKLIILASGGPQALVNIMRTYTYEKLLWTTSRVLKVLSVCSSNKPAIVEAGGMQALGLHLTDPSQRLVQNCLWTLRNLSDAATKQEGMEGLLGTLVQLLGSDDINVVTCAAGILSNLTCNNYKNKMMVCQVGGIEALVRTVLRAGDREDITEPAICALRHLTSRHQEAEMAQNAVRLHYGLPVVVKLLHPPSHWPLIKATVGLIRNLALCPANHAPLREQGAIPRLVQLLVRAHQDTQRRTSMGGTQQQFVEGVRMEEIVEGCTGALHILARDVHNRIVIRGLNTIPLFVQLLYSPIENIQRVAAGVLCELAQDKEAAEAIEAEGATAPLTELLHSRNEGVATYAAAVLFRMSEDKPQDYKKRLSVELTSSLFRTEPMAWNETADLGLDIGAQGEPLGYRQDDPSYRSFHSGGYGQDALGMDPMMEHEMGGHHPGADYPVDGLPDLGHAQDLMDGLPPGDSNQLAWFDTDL
UniProt O15169: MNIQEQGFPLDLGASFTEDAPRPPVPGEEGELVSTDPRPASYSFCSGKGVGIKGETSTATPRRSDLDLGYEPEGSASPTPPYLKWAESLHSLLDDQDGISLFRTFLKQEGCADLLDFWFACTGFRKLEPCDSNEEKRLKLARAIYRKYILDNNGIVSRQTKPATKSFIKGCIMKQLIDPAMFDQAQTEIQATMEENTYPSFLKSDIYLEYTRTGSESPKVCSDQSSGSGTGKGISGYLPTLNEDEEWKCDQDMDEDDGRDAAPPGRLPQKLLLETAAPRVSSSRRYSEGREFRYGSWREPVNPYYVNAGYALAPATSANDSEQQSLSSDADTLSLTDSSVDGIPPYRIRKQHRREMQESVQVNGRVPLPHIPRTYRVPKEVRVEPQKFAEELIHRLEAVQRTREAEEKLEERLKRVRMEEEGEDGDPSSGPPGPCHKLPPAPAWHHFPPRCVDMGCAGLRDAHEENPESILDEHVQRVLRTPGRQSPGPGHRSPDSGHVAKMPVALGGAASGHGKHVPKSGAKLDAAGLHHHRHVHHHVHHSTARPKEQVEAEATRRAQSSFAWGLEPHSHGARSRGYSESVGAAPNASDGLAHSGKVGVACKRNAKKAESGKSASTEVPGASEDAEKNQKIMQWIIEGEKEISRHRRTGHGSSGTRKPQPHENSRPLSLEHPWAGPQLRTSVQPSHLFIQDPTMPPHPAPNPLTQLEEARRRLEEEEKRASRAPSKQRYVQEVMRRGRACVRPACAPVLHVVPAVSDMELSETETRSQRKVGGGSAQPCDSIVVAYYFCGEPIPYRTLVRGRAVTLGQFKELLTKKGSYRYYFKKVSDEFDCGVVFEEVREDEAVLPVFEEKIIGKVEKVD
UniProt P49674: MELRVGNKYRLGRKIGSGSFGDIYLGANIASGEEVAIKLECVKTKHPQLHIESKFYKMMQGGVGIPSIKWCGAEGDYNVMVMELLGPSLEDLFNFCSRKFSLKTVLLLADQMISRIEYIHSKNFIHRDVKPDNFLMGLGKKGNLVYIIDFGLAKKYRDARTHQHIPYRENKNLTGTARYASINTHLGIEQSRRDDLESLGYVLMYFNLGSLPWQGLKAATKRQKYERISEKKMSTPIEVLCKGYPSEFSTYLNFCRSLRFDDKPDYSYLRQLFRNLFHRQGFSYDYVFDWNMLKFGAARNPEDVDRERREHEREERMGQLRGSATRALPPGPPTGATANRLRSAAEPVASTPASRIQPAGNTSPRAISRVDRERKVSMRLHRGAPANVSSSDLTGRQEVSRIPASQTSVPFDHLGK

Where a chain is given by its changes, count along the chain named. In names and notes the source's numbering stands. No constants are given. Whether binding was seen depends on the method and setting. Binding seen in cells or lysates may run through a third protein. Some results given as binding are weak or reduced against the parent protein; the word gives no strength. Where a sequence is shown, tags or fusion partners need not be part of it.

The target of test [1] is T1, N-terminal HA-epitope tagged DVL-1 wild type (human) (UniProt O14640).
T1 sequence: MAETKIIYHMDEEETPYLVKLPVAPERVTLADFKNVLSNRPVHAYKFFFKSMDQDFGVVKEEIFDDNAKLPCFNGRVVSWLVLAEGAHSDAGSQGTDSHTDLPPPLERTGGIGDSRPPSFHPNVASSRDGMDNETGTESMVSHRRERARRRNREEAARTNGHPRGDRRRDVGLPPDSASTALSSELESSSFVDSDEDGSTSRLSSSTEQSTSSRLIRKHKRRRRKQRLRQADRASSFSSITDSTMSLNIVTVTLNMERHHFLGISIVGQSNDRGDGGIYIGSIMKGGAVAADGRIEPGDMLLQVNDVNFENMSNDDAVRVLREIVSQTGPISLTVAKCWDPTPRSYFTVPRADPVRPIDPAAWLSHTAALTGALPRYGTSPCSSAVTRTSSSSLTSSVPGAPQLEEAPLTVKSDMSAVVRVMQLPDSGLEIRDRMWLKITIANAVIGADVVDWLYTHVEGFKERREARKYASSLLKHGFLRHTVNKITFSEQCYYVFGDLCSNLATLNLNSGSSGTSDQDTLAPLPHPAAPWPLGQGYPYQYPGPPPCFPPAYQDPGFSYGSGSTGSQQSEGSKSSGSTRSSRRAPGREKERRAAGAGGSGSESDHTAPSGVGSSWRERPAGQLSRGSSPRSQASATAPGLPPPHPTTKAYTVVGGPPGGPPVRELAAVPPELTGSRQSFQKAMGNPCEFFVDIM
The experiment in a line: co-IP; HEK293 cells stably expressing HA-DVL-1 WT, K34R or K34Q; immunoprecipitation with HA-tag antibody and Protein A Dynabeads, blotted for DVL-2 and CK1e; lysis buffer 25 mM Tris pH 7.4, 150 mM NaCl, 1 mM EDTA, 1% NP-40, 5% glycerol; 4°C.

Test [2] addresses T2, N-HA-tagged DVL-1 K34R mutant (human) (UniProt O14640).
T2 sequence: T1 sequence with K34R
The test is described as above.

The target in test [3] is T3, N-HA-tagged DVL-1 K34Q mutant (human) (UniProt O14640).
T3 sequence: T1 sequence with K34Q
The test is described as above.

Test [4] concerns the target β-catenin (human (endogenous in HEK293)) (UniProt P35222). Briefly: co-IP; reciprocal co-IP: HEK293 cells stably expressing HA-DVL-1 WT, K34R or K34Q; binding partners (Axin1, DVL3, β-catenin, FZD7) pulled down and blotted for HA-tag; lysis buffer 25 mM Tris pH 7.4, 150 mM NaCl, 1 mM EDTA, 1% NP-40, 5% glycerol; 4°C.
Test [5] addresses Axin1 (human (endogenous in HEK293)) (UniProt O15169). The test is described as above.

In the case of “casein kinase 1 (CK1e) (from UniProt P49674 1-416) (enzyme)”, the binding entry in test [1], in test [2] and in test [3] was “binds” throughout.

B1: N-terminal HA-epitope tagged DVL-1 wild type (protein, UniProt O14640 1-695)
chain: T1 sequence
In the case of B1, in test [4], the binding result is recorded as “binds”.

B2: N-HA-tagged DVL-1 K34R mutant (protein, UniProt O14640 1-695)
chain: T1 sequence with K34R
With B2, in test [4], the binding entry is given as “binds”.

B3: N-HA-tagged DVL-1 K34Q mutant (protein, UniProt O14640 1-695)
chain: T1 sequence with K34Q
In the case of B3, the binding entry in test [5] and in test [4] was “binds” in each case.
